Laboratory results reported in patent US7638540B2, “Benzofuran compound and medicinal composition containing the same” (The New Industry Research Organization, priority 2003, dated 2009).
Some results were stated once for a whole list of compounds, not compound by compound.

Molecular target: T1, human BLT2 (Homo sapiens, UniProt Q9NPC1)
T1 construct: expressed in transfected cells; host or cells: CHO cells
T1 sequence (Q9NPC1 1-358): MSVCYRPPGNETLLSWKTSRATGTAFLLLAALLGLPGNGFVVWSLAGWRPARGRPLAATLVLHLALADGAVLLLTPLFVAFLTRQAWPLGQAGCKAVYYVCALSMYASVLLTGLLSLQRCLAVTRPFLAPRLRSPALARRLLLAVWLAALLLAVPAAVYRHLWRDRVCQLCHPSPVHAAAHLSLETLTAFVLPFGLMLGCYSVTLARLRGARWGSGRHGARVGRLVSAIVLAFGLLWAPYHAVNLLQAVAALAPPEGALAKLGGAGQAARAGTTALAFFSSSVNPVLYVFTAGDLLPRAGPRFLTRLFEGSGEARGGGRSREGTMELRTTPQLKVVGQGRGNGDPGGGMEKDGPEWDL
Assay: LTB4-induced increase in intracellular calcium ion concentration in CHO cells expressing human BLT2 (Fluo-3, Flexstation)
Assay type: cell-based
Conditions: CHO cells with human BLT2; compound 10 μM final; LTB4 100 nM final
Experimental: CHO cells habouring a gene encoding human BLT1 or human BLT2 and functionally expressing the receptor were seeded in a 96 well plate at 4×10^4 cells/well, and cultured at 37° C. for 60 min. The culture supernatant was removed and a loading buffer (100 μl) containing 4 μM Fluo-3 (manufactured by Dojindo), 0.04% pluoronic acid (manufactured by Sigma) and 1% serum was added. The mixture was culture at 37° C. for 30 min to introduce Fluo-3 into the cells. After culture, the cells were washed with a buffer, and a buffer containing various compounds (10 μM (final concentration)) was added, and then 100 nM (final concentration) of LTB4 was added. Changes in the intracellular calcium ion concentration were measured with Flexstation (manufactured by Molecular Devices Corporation) as increase in the fluorescence intensity (area under a curve in a time-course graph of fluorescence intensity in 10 min measurement). As a positive control of BLT1 and BLT2 antagonists, ZK158252 was used.

CCOC(=O)CCCOc1cccc2cc(/C(C)=C\C(=O)N(CC)CC)oc12 [Example 225, Ethyl (Z)-4-[2-(2-diethylcarbamoyl-1-methylvinyl)benzofuran-7-yloxy]butyrate]
Suppression of increase in intracellular calcium ion concentration, relative to the level of suppression by ZK158252: not less than 30 % of the level of suppression by ZK158252

O=C(/C=C/c1ccccc1)Nc1c(Cl)oc2ccc(Br)cc12 [Example 180, (E)-N-(5-bromo-2-chlorobenzofuran-3-yl)-3-phenylacrylamide]
Suppression of increase in intracellular calcium ion concentration, relative to the level of suppression by ZK158252: not less than 30 % of the level of suppression by ZK158252

COc1ccc2oc(-c3csc(NC(=O)/C(C#N)=C(/C)O)n3)c(-c3ccc(Cl)cc3)c2c1 [Example 222, (Z)-2-cyano-3-hydroxy-2-butenoic acid {4-[3-(4-chlorophenyl)-5-methoxybenzofuran-2-yl]thiazol-2-yl}amide]
Suppression of increase in intracellular calcium ion concentration, relative to the level of suppression by ZK158252: not less than 30 % of the level of suppression by ZK158252

COc1ccc(NC(=O)/C=C/c2oc3ccc(OC)cc3c2-c2ccc(Cl)cc2)cc1 [Example 141, (E)-3-[3-(4-chlorophenyl)-5-methoxybenzofuran-2-yl]-N-(4-methoxyphenyl)acrylamide]
Suppression of increase in intracellular calcium ion concentration, relative to the level of suppression by ZK158252: not less than 30 % of the level of suppression by ZK158252

CCOC(=O)CCCOc1cccc2cc(/C(C)=C/C(=O)N3CCOCC3)oc12 [Example 30, Ethyl (E)-4-[2-(1-methyl-3-morpholino-3-oxo-1-propenyl)benzofuran-7-yloxy]butyrate]
Suppression of increase in intracellular calcium ion concentration, relative to the level of suppression by ZK158252: not less than 30 % of the level of suppression by ZK158252

COc1ccc2c(NC(=O)/C=C/c3ccccc3)c(C(C)=O)oc2c1 [Example 120, (E)-N-(2-acetyl-6-methoxybenzofuran-3-yl)-3-phenylacrylamide]
Suppression of increase in intracellular calcium ion concentration, relative to the level of suppression by ZK158252: not less than 30 % of the level of suppression by ZK158252

CCN(CC)C(=O)/C=C(\C)c1ccc2oc(C(C)=O)c(NC(=O)/C(C#N)=C(/C)O)c2c1 [Example 94, N-{2-acetyl-5-[(E)-2-diethylcarbamoyl-1-methylvinyl]benzofuran-3-yl}-2-cyano-3-hydroxy-(Z)-2-butenamide]
Suppression of increase in intracellular calcium ion concentration, relative to the level of suppression by ZK158252: not less than 30 % of the level of suppression by ZK158252

CCOC(=O)c1oc2ccc(Br)cc2c1NC(=O)/C(C#N)=C(/C)O [Example 97, Ethyl (Z)-5-bromo-3-(2-cyano-3-hydroxy-2-butenoylamino)benzofurane-2-carboxylate]
Suppression of increase in intracellular calcium ion concentration, relative to the level of suppression by ZK158252: not less than 30 % of the level of suppression by ZK158252

CC(NC(=O)/C=C/c1ccccc1)c1cc2cccc(OCCCCl)c2o1 (stereo not drawn) [Example 131, (E)-N-{1-[7-(3-chloropropoxy)benzofuran-2-yl]ethyl}-3-phenylacrylamide]
Suppression of increase in intracellular calcium ion concentration, relative to the level of suppression by ZK158252: not less than 30 % of the level of suppression by ZK158252

CCOC(=O)CCCOc1cccc2cc(/C(C)=C/C(=O)N(CC)CC)oc12 [Example 224, Ethyl (E)-4-[2-(2-diethylcarbamoyl-1-methylvinyl)benzofuran-7-yloxy]butyrate]
Suppression of increase in intracellular calcium ion concentration, relative to the level of suppression by ZK158252: not less than 30 % of the level of suppression by ZK158252

CCN(CC)C(=O)/C=C(\C)c1ccc(OCCCCl)c2oc(C(C)=O)cc12 [Example 137, (E)-3-[2-acetyl-7-(3-chloropropoxy)benzofuran-4-yl]-2-butenoic acid diethylamide]
Suppression of increase in intracellular calcium ion concentration, relative to the level of suppression by ZK158252: not less than 30 % of the level of suppression by ZK158252

CCN(CC)C(=O)/C=C(\C)c1cc2cccc(OC(C)C)c2o1 [Example 33, (E)-3-(7-isopropoxybenzofuran-2-yl)-N,N-diethyl-2-butenamide]
Suppression of increase in intracellular calcium ion concentration, relative to the level of suppression by ZK158252: not less than 30 % of the level of suppression by ZK158252

CCOC(=O)CCCOc1ccc(/C(C)=C/C(=O)N(CC)CC)c2cc(C(C)=O)oc12 [Example 14, Ethyl (E)-4-[2-acetyl-4-(2-diethylcarbamoyl-1-methylvinyl)benzofuran-7-yloxy]butyrate]
Suppression of increase in intracellular calcium ion concentration, relative to the level of suppression by ZK158252: not less than 30 % of the level of suppression by ZK158252

CCOC(=O)CCCOc1cccc2cc(/C(C)=C/C(=O)NCCc3ccc(OC)c(OC)c3)oc12 [Example 49, Ethyl (E)-4-(2-{2-[2-(3,4-dimethoxyphenyl)ethylcarbamoyl]-1-methylvinyl}benzofuran-7-yloxy)butyrate]
Suppression of increase in intracellular calcium ion concentration, relative to the level of suppression by ZK158252: not less than 30 % of the level of suppression by ZK158252

C/C(O)=C(\C#N)C(=O)Nc1c(C(=O)c2ccc(Cl)cc2)oc2ccc(Br)cc12 [Example 98, (Z)-N-[5-bromo-2-(4-chlorobenzoyl)benzofuran-3-yl]-2-cyano-3-hydroxy-2-butenamide]
Suppression of increase in intracellular calcium ion concentration, relative to the level of suppression by ZK158252: not less than 30 % of the level of suppression by ZK158252

CC(=O)c1cc2c(/C(C)=C/C(=O)N3CCOCC3)ccc(OC(c3ccccc3)c3ccccc3)c2o1 [Example 7, (E)-3-(2-acetyl-7-benzhydryloxybenzofuran-4-yl)-1-morpholino-2-buten-1-one]
Suppression of increase in intracellular calcium ion concentration, relative to the level of suppression by ZK158252: not less than 30 % of the level of suppression by ZK158252

CC(=O)c1cc2c(/C(C)=C/C(=O)N3CCOCC3)ccc(OC(C)c3ccccc3)c2o1 (stereo not drawn) [Example 9, (E)-3-[2-acetyl-7-(1-phenylethoxy)benzofuran-4-yl]-1-morpholino-2-buten-1-one]
Suppression of increase in intracellular calcium ion concentration, relative to the level of suppression by ZK158252: not less than 30 % of the level of suppression by ZK158252

COc1cccc2cc(/C(Cl)=C/C=C/C(=O)N(C(C)C)C(C)C)oc12 [Example 142, (2E,4Z)-5-chloro-5-(7-methoxybenzofuran-2-yl)penta-2,4-dienoic acid diisopropylamide]
Suppression of increase in intracellular calcium ion concentration, relative to the level of suppression by ZK158252: not less than 30 % of the level of suppression by ZK158252

CCN(CC)C(=O)/C=C(\C)c1ccc(OC(C)c2ccccc2)c2oc(C(C)=O)cc12 (stereo not drawn) [Example 1, (E)-3-[2-acetyl-7-(1-phenylethoxy)benzofuran-4-yl]-N,N-diethyl-2-butenamide]
Suppression of increase in intracellular calcium ion concentration, relative to the level of suppression by ZK158252: not less than 30 % of the level of suppression by ZK158252

COc1cccc(NC(=O)/C=C(\C)c2cc3cccc(OCCCC(=O)O)c3o2)c1 [Example 29, (E)-4-{2-[2-(3-methoxyphenylcarbamoyl)-1-methylvinyl]benzofuran-7-yloxy}butyric acid]
Suppression of increase in intracellular calcium ion concentration, relative to the level of suppression by ZK158252: not less than 30 % of the level of suppression by ZK158252

COc1cccc2cc(/C(Cl)=C/C=C/C(=O)N3CCCCC3)oc12 [Example 144, (2E,4Z)-5-chloro-5-(7-methoxybenzofuran-2-yl)-1-piperidin-1-ylpenta-2,4-dien-1-one]
Suppression of increase in intracellular calcium ion concentration, relative to the level of suppression by ZK158252: not less than 30 % of the level of suppression by ZK158252

CCOC(=O)CCCOc1cccc2cc(/C(C)=C\C(=O)Nc3ccc(OC)c(OC)c3)oc12 [Example 46, Ethyl (Z)-4-{2-[2-(3,4-dimethoxyphenylcarbamoyl)-1-methylvinyl]benzofuran-7-yloxy}butyrate]
Suppression of increase in intracellular calcium ion concentration, relative to the level of suppression by ZK158252: not less than 30 % of the level of suppression by ZK158252

COc1ccc2oc(-c3csc(N=CN(C)C)n3)c(-c3ccc(Cl)cc3)c2c1 [Example 219, N′-{4-[3-(4-chlorophenyl)-5-methoxybenzofuran-2-yl]thiazol-2-yl}-N,N-dimethylformamidine]
Suppression of increase in intracellular calcium ion concentration, relative to the level of suppression by ZK158252: not less than 30 % of the level of suppression by ZK158252

CCOC(=O)CCCOc1cccc2cc(/C(C)=C/C(=O)NCC(=O)OCC)oc12 [Example 40, Ethyl (E)-4-{2-[2-(ethoxycarbonylmethylcarbamoyl)-1-methylvinyl]benzofuran-7-yloxy}butyrate]
Suppression of increase in intracellular calcium ion concentration, relative to the level of suppression by ZK158252: not less than 30 % of the level of suppression by ZK158252
